# The supplement of paper PMC10849652
# Chains of the proteins cited; added tags and fusions are not shown. Lines headed by an entry give the natural chain unless they say otherwise; changes in a name come on top.
# UniProt Q969S0: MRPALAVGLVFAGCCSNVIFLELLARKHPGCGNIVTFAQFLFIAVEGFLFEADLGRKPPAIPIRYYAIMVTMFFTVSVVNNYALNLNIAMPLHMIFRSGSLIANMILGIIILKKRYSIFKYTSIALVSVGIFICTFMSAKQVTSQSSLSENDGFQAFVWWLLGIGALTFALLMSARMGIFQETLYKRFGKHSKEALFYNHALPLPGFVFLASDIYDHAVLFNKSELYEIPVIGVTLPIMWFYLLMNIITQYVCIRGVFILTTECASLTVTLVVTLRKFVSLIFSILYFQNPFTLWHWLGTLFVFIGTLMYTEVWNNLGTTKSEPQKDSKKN
# UniProt Q9BXP2: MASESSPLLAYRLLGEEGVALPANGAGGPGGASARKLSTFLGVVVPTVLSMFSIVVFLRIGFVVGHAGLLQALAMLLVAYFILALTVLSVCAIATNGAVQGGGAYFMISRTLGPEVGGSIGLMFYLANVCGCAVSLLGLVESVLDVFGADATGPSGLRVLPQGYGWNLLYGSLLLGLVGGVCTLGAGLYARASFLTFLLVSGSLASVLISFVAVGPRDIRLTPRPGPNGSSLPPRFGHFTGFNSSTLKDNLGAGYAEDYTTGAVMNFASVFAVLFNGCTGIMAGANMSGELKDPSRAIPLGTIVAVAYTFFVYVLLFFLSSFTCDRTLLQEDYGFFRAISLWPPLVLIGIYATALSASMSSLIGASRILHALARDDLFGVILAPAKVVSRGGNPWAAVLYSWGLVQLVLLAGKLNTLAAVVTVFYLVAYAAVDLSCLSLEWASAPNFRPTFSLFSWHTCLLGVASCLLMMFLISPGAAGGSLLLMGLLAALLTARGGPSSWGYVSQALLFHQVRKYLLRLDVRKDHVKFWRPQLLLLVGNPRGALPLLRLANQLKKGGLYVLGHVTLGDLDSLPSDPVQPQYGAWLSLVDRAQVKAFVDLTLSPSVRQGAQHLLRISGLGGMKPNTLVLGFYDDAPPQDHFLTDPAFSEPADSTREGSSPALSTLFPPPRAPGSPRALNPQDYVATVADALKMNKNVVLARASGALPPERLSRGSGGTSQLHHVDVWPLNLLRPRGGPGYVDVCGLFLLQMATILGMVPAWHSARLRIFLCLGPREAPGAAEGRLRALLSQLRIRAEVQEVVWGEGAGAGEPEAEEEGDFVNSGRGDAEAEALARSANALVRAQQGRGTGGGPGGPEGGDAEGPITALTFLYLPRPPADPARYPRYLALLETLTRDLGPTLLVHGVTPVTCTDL
# UniProt Q6XR72: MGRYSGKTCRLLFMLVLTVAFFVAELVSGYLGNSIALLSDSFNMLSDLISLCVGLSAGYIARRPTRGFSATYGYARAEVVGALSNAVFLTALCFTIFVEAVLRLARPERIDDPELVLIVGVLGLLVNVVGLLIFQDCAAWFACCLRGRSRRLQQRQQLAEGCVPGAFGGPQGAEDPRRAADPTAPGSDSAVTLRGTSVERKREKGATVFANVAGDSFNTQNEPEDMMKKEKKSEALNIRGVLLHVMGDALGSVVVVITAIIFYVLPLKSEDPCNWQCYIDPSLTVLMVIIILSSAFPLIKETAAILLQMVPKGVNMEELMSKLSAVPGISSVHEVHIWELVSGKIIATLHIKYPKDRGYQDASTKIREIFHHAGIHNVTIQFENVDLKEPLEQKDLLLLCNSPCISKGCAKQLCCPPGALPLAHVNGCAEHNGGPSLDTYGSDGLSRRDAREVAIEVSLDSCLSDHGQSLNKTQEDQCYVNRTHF
# UniProt Q6PCB7: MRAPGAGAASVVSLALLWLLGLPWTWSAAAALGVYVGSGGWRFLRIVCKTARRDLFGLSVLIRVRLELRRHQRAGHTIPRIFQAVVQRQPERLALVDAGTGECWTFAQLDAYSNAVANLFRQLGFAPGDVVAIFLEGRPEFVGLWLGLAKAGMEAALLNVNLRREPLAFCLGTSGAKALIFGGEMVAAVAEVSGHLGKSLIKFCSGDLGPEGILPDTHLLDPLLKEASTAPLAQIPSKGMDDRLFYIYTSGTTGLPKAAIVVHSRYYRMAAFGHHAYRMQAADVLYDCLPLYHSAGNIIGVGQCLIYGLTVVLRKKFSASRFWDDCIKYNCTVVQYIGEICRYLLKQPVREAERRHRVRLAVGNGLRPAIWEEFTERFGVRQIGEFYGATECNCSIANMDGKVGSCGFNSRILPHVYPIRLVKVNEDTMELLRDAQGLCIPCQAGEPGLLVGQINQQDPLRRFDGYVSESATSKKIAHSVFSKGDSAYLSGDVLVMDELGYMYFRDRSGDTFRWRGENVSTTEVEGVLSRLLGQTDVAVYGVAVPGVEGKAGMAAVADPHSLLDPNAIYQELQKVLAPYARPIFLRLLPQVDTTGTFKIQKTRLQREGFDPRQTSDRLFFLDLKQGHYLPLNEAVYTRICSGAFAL
# UniProt P48067: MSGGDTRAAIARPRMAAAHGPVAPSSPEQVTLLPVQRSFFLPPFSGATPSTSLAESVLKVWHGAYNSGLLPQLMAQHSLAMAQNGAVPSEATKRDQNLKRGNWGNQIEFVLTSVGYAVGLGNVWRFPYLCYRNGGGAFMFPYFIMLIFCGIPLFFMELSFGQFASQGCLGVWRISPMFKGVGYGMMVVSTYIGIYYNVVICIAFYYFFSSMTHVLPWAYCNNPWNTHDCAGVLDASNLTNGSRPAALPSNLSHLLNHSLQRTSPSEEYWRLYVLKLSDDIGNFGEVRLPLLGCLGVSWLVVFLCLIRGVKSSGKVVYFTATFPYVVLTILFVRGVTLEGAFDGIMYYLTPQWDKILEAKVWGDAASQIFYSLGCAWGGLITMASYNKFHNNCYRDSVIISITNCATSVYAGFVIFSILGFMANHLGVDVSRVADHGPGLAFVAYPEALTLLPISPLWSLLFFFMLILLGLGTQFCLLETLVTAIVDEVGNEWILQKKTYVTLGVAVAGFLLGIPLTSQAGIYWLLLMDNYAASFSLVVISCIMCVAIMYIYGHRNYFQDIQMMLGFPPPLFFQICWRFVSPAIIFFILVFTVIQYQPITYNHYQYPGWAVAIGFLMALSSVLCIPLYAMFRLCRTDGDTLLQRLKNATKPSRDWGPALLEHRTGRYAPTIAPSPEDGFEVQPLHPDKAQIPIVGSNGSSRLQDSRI
# UniProt P41440: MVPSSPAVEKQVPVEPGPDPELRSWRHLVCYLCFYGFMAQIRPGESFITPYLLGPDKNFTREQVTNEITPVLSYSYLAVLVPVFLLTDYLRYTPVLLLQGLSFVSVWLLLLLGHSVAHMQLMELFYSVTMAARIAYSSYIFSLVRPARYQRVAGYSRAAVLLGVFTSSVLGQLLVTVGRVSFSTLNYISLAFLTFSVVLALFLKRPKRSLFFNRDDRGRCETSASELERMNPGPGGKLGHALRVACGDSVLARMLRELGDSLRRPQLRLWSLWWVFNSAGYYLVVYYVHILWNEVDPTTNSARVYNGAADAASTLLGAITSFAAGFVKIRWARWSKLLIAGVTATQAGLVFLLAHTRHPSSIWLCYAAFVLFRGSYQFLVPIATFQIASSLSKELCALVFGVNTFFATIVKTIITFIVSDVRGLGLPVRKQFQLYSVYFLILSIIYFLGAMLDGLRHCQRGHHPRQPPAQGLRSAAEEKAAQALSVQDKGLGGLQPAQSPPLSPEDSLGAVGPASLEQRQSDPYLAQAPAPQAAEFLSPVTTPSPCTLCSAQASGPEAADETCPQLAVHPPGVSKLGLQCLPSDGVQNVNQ
# UniProt Q9BZJ4: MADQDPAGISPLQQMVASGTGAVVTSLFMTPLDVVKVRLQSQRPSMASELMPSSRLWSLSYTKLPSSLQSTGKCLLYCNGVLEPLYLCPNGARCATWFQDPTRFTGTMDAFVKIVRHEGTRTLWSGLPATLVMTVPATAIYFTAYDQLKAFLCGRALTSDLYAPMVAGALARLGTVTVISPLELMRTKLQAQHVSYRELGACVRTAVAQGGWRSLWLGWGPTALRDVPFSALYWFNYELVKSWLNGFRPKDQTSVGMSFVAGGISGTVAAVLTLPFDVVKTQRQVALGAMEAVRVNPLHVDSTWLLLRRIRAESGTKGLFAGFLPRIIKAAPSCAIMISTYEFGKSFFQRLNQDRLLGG
# UniProt Q9BZD2: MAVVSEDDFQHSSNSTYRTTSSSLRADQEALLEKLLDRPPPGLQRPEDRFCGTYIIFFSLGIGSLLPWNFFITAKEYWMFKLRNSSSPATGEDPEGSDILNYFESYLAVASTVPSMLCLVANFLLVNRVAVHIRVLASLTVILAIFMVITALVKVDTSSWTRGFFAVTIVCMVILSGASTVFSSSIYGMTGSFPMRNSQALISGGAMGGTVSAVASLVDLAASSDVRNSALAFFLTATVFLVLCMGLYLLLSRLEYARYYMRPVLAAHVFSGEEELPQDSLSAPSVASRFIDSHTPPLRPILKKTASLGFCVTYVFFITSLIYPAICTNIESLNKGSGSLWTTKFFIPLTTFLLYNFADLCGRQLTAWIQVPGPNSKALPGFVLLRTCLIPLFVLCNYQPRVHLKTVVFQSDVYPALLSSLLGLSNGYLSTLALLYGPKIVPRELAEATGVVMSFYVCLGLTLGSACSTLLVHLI
# UniProt O14975, whole entry, looked up: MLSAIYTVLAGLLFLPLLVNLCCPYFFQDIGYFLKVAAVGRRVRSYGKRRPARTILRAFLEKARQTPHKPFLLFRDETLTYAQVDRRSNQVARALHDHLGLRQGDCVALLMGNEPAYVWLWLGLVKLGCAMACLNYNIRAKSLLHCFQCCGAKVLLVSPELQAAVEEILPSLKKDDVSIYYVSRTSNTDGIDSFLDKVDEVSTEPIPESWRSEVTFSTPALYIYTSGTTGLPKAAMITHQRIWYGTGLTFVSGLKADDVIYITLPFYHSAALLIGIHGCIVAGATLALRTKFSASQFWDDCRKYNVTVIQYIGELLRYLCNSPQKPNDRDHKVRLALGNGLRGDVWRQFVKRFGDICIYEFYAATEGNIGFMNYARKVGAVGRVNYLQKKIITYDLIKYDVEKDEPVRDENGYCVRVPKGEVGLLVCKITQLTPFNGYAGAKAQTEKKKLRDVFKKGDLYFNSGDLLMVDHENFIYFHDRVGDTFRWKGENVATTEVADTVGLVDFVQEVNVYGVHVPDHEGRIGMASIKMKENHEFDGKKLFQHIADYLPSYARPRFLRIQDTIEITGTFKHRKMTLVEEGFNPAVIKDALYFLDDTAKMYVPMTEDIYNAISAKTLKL
# UniProt Q8NEW0: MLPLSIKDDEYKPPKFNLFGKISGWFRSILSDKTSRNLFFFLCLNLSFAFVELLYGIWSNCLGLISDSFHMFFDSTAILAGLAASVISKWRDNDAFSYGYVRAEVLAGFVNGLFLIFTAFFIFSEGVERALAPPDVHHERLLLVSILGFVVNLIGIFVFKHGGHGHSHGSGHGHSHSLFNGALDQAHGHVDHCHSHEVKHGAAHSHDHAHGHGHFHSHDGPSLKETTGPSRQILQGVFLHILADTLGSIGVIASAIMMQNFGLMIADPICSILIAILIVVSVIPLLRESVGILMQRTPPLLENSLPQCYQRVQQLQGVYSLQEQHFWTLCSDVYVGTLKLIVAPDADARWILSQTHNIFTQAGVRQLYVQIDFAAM
# UniProt Q8N697: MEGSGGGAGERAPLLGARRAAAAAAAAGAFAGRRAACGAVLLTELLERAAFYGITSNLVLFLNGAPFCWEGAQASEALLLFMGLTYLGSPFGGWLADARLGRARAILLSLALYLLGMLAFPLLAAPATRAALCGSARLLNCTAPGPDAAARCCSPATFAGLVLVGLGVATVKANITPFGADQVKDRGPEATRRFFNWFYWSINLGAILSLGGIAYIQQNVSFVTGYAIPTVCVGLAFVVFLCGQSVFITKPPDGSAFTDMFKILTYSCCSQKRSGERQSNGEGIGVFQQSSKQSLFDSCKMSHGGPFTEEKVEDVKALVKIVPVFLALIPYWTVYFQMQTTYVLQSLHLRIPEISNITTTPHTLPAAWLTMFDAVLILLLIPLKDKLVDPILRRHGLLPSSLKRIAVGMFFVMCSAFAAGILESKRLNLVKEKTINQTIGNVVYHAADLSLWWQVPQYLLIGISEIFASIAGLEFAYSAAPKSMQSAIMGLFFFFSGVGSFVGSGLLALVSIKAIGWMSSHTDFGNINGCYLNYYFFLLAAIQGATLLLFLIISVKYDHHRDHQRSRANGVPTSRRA
# UniProt Q96BI1: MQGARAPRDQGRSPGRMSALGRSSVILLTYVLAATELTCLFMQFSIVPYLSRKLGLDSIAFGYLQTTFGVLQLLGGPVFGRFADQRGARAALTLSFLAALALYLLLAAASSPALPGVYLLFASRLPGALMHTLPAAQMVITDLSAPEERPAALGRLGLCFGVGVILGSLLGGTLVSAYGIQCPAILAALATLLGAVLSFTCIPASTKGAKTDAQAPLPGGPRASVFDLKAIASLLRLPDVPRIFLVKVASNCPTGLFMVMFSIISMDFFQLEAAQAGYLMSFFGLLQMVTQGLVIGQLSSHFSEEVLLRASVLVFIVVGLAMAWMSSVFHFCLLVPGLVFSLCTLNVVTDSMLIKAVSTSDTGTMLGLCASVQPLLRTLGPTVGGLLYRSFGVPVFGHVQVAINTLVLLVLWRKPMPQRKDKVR
# This is one part of the list. Residues, ends and D or L forms follow the SMILES beside them. *: point of attachment. Cbz = O=C(OCc1ccccc1)*
# Key:
# Assay in all cases: log2 fold change, soluble protein after heating vs DMSO (PISA); higher = thermal stabilisation; K562 cells, 10 uM, 30 min; active = over 0.2 and 3.5 SD of the protein, either way, in both replicates (recomputed)
# IRAK-1-4 Inhibitor I = compound: C1COCCN1CCN2C3=CC=CC=C3N=C2NC(=O)C4=CC(=CC=C4)[N+](=O)[O-] [IRAK-1-4 Inhibitor I]
# How it was run: (§1)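 For each measurement, 10 μM compound was applied for 30 min to K562 cells at 2×10^6 cells/mL. Aliquots were heated for 3 min across 48°C-58°C, pooled, and extracted in PBS with 0.5% NP-40 at 4°C; the supernatant after 21,000xg for 90 min was soluble protein. This was quantified by TMTpro 16plex LC-MS/MS with channel sums equalised, and thermal stability was reported relative to control samples from duplicates, on a log2 fold-change scale.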
# ibrutinib = compound: C=CC(=O)N1CCC[C@@H](n2nc(-c3ccc(Oc4ccccc4)cc3)c3c(N)ncnc32)C1 [ibrutinib]
# How it was run: as §1
# [1] = compound: CC(C)(O)CC(=O)NCCn1ccc2ncnc(Nc3ccc(Oc4cccc(C(F)(F)F)c4)c(Cl)c3)c21
# How it was run: as §1
# pinometostat = compound: CC(C)N(C[C@H]1O[C@@H](n2cnc3c(N)ncnc32)[C@H](O)[C@@H]1O)[C@H]1C[C@@H](CCc2nc3cc(C(C)(C)C)ccc3[nH]2)C1 [pinometostat]
# How it was run: as §1
# [2] = compound: CC1=C(C(CC(=O)N1)C2=CC=C(C=C2)C(F)(F)F)C(=O)NC3=C(C=C4C(=C3)C=NN4)F
# How it was run: as §1
# [3] = compound: CC(=O)c1cnc2ccc(-c3cc(Cl)c(O)c(Cl)c3)nc2c1N[C@H]1CC[C@H](CN(C)C)CC1
# How it was run: as §1
# ralimetinib = compound: CC(C)(C)Cn1c(N)nc2ccc(-c3[nH]c(C(C)(C)C)nc3-c3ccc(F)cc3)nc21 [ralimetinib]
# How it was run: as §1
# [4] = compound: CC(C)C1=C2N=C(C=C(N2N=C1)NCC3=CC=CC=C3)NCCCCCCN
# How it was run: as §1
# [5] = compound: CC(C)C[C@@H](C=O)NC(=O)[C@H](CC(C)C)NC(=O)[C@H](CC(C)C)NC(=O)OCc1ccccc1
# How it was run: as §1
# [6] = compound: CC1=C(C2=C(C=C1)C(=O)C3=CC=CC=C3N2CCCN)C
# How it was run: as §1
Target,log2 fold change (IRAK-1-4 Inhibitor I),log2 fold change (ibrutinib),log2 fold change [1],log2 fold change (pinometostat),log2 fold change [2],log2 fold change [3],log2 fold change (ralimetinib),log2 fold change [4],log2 fold change [5],log2 fold change [6]
SLC22A5 isoform 3 (UniProt O76082),inactive: -0.033,inactive: -0.232,inactive: 0.003,inactive: -0.126,inactive: -0.024,–,–,–,–,–
SLC25A36 (UniProt Q96CQ1),inactive: 0.048,inactive: 0.066,inactive: -0.167,inactive: 0.01,–,inactive: 0.029,inactive: 0.019,inactive: -0.03,inactive: 0.007,inactive: 0.012
SLC35B4 (UniProt Q969S0),inactive: 0.092,inactive: 0.023,inactive: 0.098,inactive: -0.056,–,inactive: 0.184,–,inactive: -0.02,–,inactive: 0.059
SLC25A4 (UniProt P12235),inactive: 0.032,inactive: 0.068,inactive: 0.009,inactive: -0.02,–,inactive: 0.016,inactive: -0.007,inactive: 0.089,inactive: 0.004,inactive: -0.013
SLC12A5 (UniProt Q9H2X9),inactive: -0.024,inactive: -0.006,inactive: 0.14,inactive: -0.113,–,inactive: -0.101,–,inactive: 0.052,–,inactive: 0.047
SLC39A11 (UniProt Q8N1S5),inactive: 0.092,inactive: 0.066,–,inactive: -0.085,–,inactive: 0.051,inactive: 0.012,inactive: -0.117,inactive: -0.051,inactive: 0.07
SLC6A6 (UniProt P31641),inactive: -0.025,inactive: 0.036,inactive: -0.033,inactive: -0.071,–,inactive: -0.045,inactive: -0.186,inactive: 0.107,inactive: 0.101,inactive: -0.181
SLC35B1 isoform 2 (UniProt P78383),inactive: -0.067,inactive: 0.09,inactive: -0.217,inactive: 0.065,–,–,inactive: -0.184,inactive: -0.04,inactive: 0.038,inactive: 0.011
SLBP (UniProt Q14493),inactive: -0.123,inactive: -0.162,inactive: -0.09,inactive: -0.034,–,active: -0.38,inactive: -0.068,inactive: -0.206,inactive: 0.162,inactive: -0.126
SLC12A9 (UniProt Q9BXP2),inactive: 0.112,inactive: -0.001,inactive: -0.012,inactive: -0.018,–,inactive: 0.016,inactive: -0.106,inactive: -0.165,inactive: 0.033,inactive: 0.056
SLC44A2 isoform 2 (UniProt Q8IWA5),inactive: 0.092,inactive: 0.055,inactive: -0.006,inactive: 0.056,–,inactive: 0.034,inactive: -0.128,active: 0.296,inactive: -0.047,inactive: 0.034
SLC38A2 (UniProt Q96QD8),inactive: 0.018,inactive: 0.022,inactive: -0.12,inactive: -0.053,–,inactive: -0.057,inactive: -0.097,active: -0.28,inactive: 0.102,inactive: 0.01
SLC30A10 (UniProt Q6XR72),inactive: 0.05,inactive: -0.08,inactive: -0.079,inactive: -0.032,–,inactive: -0.019,inactive: -0.014,inactive: 0.035,inactive: -0.054,inactive: 0.12
SLC38A9 (UniProt Q8NBW4),inactive: -0.028,inactive: -0.005,inactive: 0.089,inactive: -0.023,–,inactive: -0.019,inactive: 0,active: -0.368,inactive: 0.049,inactive: -0.1
SLC27A1 (UniProt Q6PCB7),inactive: 0.052,inactive: 0.064,inactive: 0.117,inactive: -0.034,–,inactive: -0.05,inactive: 0.001,inactive: -0.035,inactive: -0.04,inactive: 0.04
SLC50A1 (UniProt Q9BRV3),inactive: 0.07,inactive: -0.065,–,inactive: 0.033,–,inactive: 0.686,inactive: -0.046,inactive: 0.02,inactive: 0.104,–
SLC35A2 isoform 4 (UniProt P78381),inactive: 0.064,inactive: -0.035,inactive: -0.161,inactive: -0.065,inactive: -0.007,inactive: -0.254,inactive: -0.154,–,inactive: -0.07,inactive: 0.041
SLC48A1 (UniProt Q6P1K1),inactive: 0.081,inactive: 0.144,–,inactive: 0.156,inactive: -0.155,–,inactive: 0.158,inactive: -0.467,inactive: -0.061,–
SLC6A9 (UniProt P48067),inactive: 0.117,inactive: -0.033,–,inactive: 0.046,inactive: 0.008,inactive: -0.065,inactive: -0.057,inactive: 0.098,inactive: 0.006,inactive: 0.087
SLC19A1 (UniProt P41440),inactive: 0.017,inactive: -0.025,inactive: -0.061,inactive: 0.052,–,inactive: -0.034,inactive: 0.005,inactive: 0.104,inactive: 0.045,inactive: 0.073
SLC25A39 (UniProt Q9BZJ4),inactive: 0.037,inactive: 0.032,inactive: -0.112,inactive: 0.294,–,inactive: 0.068,inactive: -0.035,active: -0.673,inactive: 0.035,inactive: -0.11
SLC29A3 (UniProt Q9BZD2),inactive: 0.01,inactive: 0.064,inactive: 0.088,inactive: 0.02,–,inactive: 0.04,inactive: -0.025,inactive: -0.283,inactive: 0.011,inactive: -0.148
SLC27A2 (UniProt O14975),inactive: -0.039,inactive: 0.144,active: 0.366,inactive: 0.01,–,inactive: -0.125,inactive: 0.013,inactive: 0.015,inactive: 0.055,inactive: 0.03
SLC30A7 (UniProt Q8NEW0),inactive: 0.035,inactive: 0.063,inactive: -0.075,inactive: -0.007,–,inactive: 0.032,inactive: -0.098,inactive: -0.186,inactive: 0.011,inactive: 0.06
SLC1A5 (UniProt Q15758),inactive: 0.035,inactive: 0.028,inactive: -0.002,inactive: -0.034,–,inactive: 0.013,inactive: 0.046,inactive: 0.23,inactive: -0.052,inactive: -0.014
SLC15A4 (UniProt Q8N697),inactive: 0.119,inactive: -0.066,–,inactive: -0.019,inactive: -0.132,inactive: -0.003,inactive: 0,inactive: -0.087,inactive: -0.011,inactive: 0.016
SLC25A23 isoform 3 (UniProt Q9BV35),inactive: -0.078,inactive: -0.091,–,inactive: -0.014,inactive: -0.024,inactive: -0.062,inactive: -0.056,inactive: -0.047,inactive: -0.058,inactive: -0.08
SLC22A18 (UniProt Q96BI1),inactive: -0.001,inactive: 0.005,inactive: 0.077,inactive: -0.021,inactive: -0.034,–,inactive: 0.051,inactive: -0.077,inactive: -0.017,inactive: 0.103
SLC25A14 isoform 3 (UniProt O95258),inactive: 0.048,inactive: -0.098,–,inactive: -0.022,inactive: -0.026,inactive: 0.088,inactive: 0.019,inactive: 0.043,inactive: -0.058,inactive: 0.011

# As a working copy, some entries already given.
Target,log2 fold change (IRAK-1-4 Inhibitor I),log2 fold change (ibrutinib),log2 fold change [1],log2 fold change (pinometostat),log2 fold change [2],log2 fold change [3],log2 fold change (ralimetinib),log2 fold change [4],log2 fold change [5],log2 fold change [6]
SLC30A10 (UniProt Q6XR72),inactive: 0.05,inactive: -0.08,inactive: -0.079,inactive: -0.032,–,inactive: -0.019,inactive: -0.014,inactive: 0.035,inactive: -0.054,inactive: 0.12
SLC38A9 (UniProt Q8NBW4),inactive: -0.028,inactive: -0.005,inactive: 0.089,inactive: -0.023,–,inactive: -0.019,inactive: 0,active: -0.368,inactive: 0.049,inactive: -0.1
